{
  "sequences": {"note": "The chains behind the UniProt entries cited, without tags or fusion partners. Where a name states a change or a piece, a line headed by the entry shows the natural chain unless it says otherwise.", "UniProt Q7Z2W4": "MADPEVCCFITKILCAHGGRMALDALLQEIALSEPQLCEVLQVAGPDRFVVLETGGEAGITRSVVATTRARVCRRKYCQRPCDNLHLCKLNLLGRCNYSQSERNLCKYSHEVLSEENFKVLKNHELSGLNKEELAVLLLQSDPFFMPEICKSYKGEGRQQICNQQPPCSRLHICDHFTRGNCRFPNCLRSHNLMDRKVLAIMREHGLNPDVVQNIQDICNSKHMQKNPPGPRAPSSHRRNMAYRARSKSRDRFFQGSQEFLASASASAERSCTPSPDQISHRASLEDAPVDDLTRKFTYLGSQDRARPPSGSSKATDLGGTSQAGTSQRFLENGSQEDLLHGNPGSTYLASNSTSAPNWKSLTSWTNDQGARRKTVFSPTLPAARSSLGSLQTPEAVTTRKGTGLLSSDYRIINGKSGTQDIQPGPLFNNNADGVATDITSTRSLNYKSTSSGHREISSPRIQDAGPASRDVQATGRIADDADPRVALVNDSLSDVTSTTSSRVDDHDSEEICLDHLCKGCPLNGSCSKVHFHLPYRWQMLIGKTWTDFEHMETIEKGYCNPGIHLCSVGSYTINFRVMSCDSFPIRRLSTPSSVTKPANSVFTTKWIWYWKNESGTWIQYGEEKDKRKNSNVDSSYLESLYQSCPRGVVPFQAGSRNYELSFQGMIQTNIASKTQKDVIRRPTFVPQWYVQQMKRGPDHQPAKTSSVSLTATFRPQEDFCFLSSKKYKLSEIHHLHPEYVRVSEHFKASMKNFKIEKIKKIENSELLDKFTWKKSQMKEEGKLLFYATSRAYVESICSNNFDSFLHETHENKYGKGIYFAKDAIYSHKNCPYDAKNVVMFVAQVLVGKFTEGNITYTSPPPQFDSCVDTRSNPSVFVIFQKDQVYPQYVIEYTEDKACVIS", "UniProt Q14258": "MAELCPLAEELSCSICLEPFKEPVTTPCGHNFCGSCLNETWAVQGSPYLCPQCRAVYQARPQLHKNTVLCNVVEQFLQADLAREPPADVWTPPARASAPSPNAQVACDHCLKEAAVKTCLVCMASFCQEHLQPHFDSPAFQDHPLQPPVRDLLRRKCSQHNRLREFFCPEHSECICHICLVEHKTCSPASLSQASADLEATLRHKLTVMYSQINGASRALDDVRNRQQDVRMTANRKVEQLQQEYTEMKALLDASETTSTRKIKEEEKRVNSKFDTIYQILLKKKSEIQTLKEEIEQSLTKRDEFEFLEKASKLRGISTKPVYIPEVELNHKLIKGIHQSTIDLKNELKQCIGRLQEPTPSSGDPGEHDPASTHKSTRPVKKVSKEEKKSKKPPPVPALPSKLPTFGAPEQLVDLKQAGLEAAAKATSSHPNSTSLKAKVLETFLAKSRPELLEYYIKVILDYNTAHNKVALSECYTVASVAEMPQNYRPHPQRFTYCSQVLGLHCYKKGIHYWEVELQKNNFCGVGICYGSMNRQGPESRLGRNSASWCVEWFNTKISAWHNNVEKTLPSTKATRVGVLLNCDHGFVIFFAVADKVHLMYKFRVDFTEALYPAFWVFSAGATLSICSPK"},
  "source": "paper doi:10.1101/2023.11.20.567784",
  "key": {"[1]": {"molecular_target": "3XFLAG-ZAPL N658A (human) (UniProt Q7Z2W4)", "test": "co-IP; ZAP KO HEK293T co-transfected with 3XFLAG-ZAPL and myc-TRIM25; lysis in FLAG buffer (100mM Tris HCl pH8.0, 150mM NaCl, 5mM EDTA, 5% glycerol, 0.1% NP-40, 1mM DTT); FLAG beads 45 min at 4°C; immunoblot"}, "[2]": {"molecular_target": "3XFLAG-ZAPL wild-type (zinc finger antiviral protein, long isoform) (human) (UniProt Q7Z2W4)", "test": "co-IP; ZAP KO HEK293T co-transfected with 3XFLAG-ZAPL and myc-TRIM25; lysis in FLAG buffer (100mM Tris HCl pH8.0, 150mM NaCl, 5mM EDTA, 5% glycerol, 0.1% NP-40, 1mM DTT); FLAG beads 45 min at 4°C; immunoblot"}},
  "note": "Results are given in words; binding and its absence hold for the method and conditions named. In cells and extracts the contact can be indirect. Some results given as binding are weak or reduced against the parent protein; the word gives no strength.",
  "data": [
    {"substance": "myc-TRIM25 (tripartite motif containing 25) (from UniProt Q14258 1-630)", "values": [
      {"measurement": "binding", "setting": "[1]", "value": "binds"},
      {"measurement": "binding", "setting": "[2]", "value": "binds"}
    ]}
  ]
}
